# According to the supplement of paper PMC8728848:
# The other results are listed elsewhere or left out.
# B1: OS9-MRH (Homo sapiens), Q13438 (protein)
# chain: IPELLSPMRDAPCLLKTKDWWTYEFCYGRHIQQYHMEDSEIKGEVLYLGYYQSAFDWDDETAKASKQHRLKRYHSQTYGNGSKCDLNGRPREAEVRFLCDEGAGISGDYIDRVDEPLSCSYVLTIRTPRLCPHPLLRPPPSAAPQAI
# Legend:
# Assay in all cases: glycan array binding signal (z-score within array); higher = stronger binding
# Conditions in all cases: glycan notation: IUPAC condensed, linker removed
# [1] = molecular target: Gal(b1-3)GlcNAc(b1-2)Man(a1-3)[Gal(b1-3)GlcNAc(b1-2)Man(a1-6)]Man(b1-4)GlcNAc(b1-4)GlcNAc
# Summary of the method: (§1)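 The binding signal is a Z-score computed within each array and averaged over linkers. Arrays of the same protein sequence at different concentrations or buffers were also averaged together. Data originate from 3228 arrays in the Consortium for Functional Glycomics database, kept only where the protein sequence was available.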
# [2] = molecular target: Gal(b1-3)GlcNAc(b1-2)Man(a1-3)[Gal(b1-3)GlcNAc(b1-2)Man(a1-6)]Man(b1-4)GlcNAc(b1-4)[Fuc(a1-6)]GlcNAc
# Summary of the method: as §1
# [3] = molecular target: Gal(b1-3)GlcNAc(b1-2)Man(a1-3)[GlcNAc(b1-4)][Gal(b1-3)GlcNAc(b1-2)Man(a1-6)]Man(b1-4)GlcNAc(b1-4)GlcNAc
# Summary of the method: as §1
# [4] = molecular target: Gal(b1-3)GlcNAc(b1-2)[Gal(b1-3)GlcNAc(b1-6)]Man(a1-6)[Gal(b1-3)GlcNAc(b1-2)Man(a1-3)]Man(b1-4)GlcNAc(b1-4)GlcNAc
# Summary of the method: as §1
# [5] = molecular target: Gal(b1-3)GlcNAc(b1-3)Gal(b1-3)GlcNAc
# Summary of the method: as §1
# [6] = molecular target: Gal(b1-3)GlcNAc(b1-3)Gal(b1-4)Glc
# Summary of the method: as §1
# [7] = molecular target: Gal(b1-3)GlcNAc(b1-3)Gal(b1-4)GlcNAc
# Summary of the method: as §1
# [8] = molecular target: Gal(b1-3)GlcNAc(b1-3)Gal(b1-4)GlcNAc(b1-2)Man(a1-3)[Gal(b1-3)GlcNAc(b1-3)Gal(b1-4)GlcNAc(b1-2)Man(a1-6)]Man(b1-4)GlcNAc(b1-4)GlcNAc
# Summary of the method: as §1
# [9] = molecular target: Gal(b1-3)GlcNAc(b1-3)Gal(b1-4)GlcNAc(b1-2)[Gal(b1-3)GlcNAc(b1-3)Gal(b1-4)GlcNAc(b1-6)]Man(a1-6)[Gal(b1-3)GlcNAc(b1-3)Gal(b1-4)GlcNAc(b1-2)Man(a1-3)]Man(b1-4)GlcNAc(b1-4)[Fuc(a1-6)]GlcNAc
# Summary of the method: as §1
# [10] = molecular target: Gal(b1-3)GlcNAc(b1-3)Gal(b1-4)GlcNAc(b1-3)Gal(b1-4)GlcNAc(b1-2)[Gal(b1-3)GlcNAc(b1-3)Gal(b1-4)GlcNAc(b1-3)Gal(b1-4)GlcNAc(b1-6)]Man(a1-6)[Gal(b1-3)GlcNAc(b1-3)Gal(b1-4)GlcNAc(b1-3)Gal(b1-4)GlcNAc(b1-2)Man(a1-3)]Man(b1-4)GlcNAc(b1-4)[Fuc(a1-6)]GlcNAc
# Summary of the method: as §1
# [11] = molecular target: Gal(b1-3)GlcNAc(b1-3)Gal(b1-4)GlcNAc(b1-6)[Gal(b1-3)GlcNAc(b1-3)]Gal(b1-4)Glc
# Summary of the method: as §1
# [12] = molecular target: Gal(b1-3)GlcNAc(b1-3)Gal(b1-4)[Fuc(a1-3)]GlcNAc
# Summary of the method: as §1
# [13] = molecular target: Gal(b1-3)GlcNAc(b1-3)Gal(b1-4)[Fuc(a1-3)]GlcNAc(b1-6)[Gal(b1-3)GlcNAc(b1-3)]Gal(b1-4)Glc
# Summary of the method: as §1
# [14] = molecular target: Gal(b1-3)GlcNAc(b1-3)GalNAc
# Summary of the method: as §1
# [15] = molecular target: Gal(b1-3)GlcNAc(b1-6)Gal(b1-4)GlcNAc
# Summary of the method: as §1
# [16] = molecular target: Gal(b1-3)GlcNAc(b1-6)GalNAc
# Summary of the method: as §1
# [17] = molecular target: Gal(b1-3)GlcNAc(b1-6)[Gal(b1-3)]GalNAc
# Summary of the method: as §1
# Gal(b1-3)GlcNAc6S = molecular target: Gal(b1-3)GlcNAc6S
# Summary of the method: as §1
# [18] = molecular target: Gal(b1-3)[Fuc(a1-4)]GlcNAc
# Summary of the method: as §1
# [19] = molecular target: Gal(b1-3)[Fuc(a1-4)]GlcNAc(b1-2)Man
# Summary of the method: as §1
# [20] = molecular target: Gal(b1-3)[Fuc(a1-4)]GlcNAc(b1-2)Man(a1-3)[Gal(b1-3)[Fuc(a1-4)]GlcNAc(b1-2)Man(a1-6)]Man(b1-4)GlcNAc(b1-4)[Fuc(a1-6)]GlcNAc
# Summary of the method: as §1
# [21] = molecular target: Gal(b1-3)[Fuc(a1-4)]GlcNAc(b1-3)Gal(b1-3)[Fuc(a1-4)]GlcNAc
# Summary of the method: as §1
# [22] = molecular target: Gal(b1-3)[Fuc(a1-4)]GlcNAc(b1-3)Gal(b1-4)[Fuc(a1-3)]GlcNAc
# Summary of the method: as §1
# [23] = molecular target: Gal(b1-3)[Fuc(a1-4)]GlcNAc(b1-6)GalNAc
# Summary of the method: as §1
# [24] = molecular target: Gal(b1-3)[GlcNAc(b1-6)]GalNAc
# Summary of the method: as §1
# [25] = molecular target: Gal(b1-3)[Neu5Ac(a2-6)]GalNAc
# Summary of the method: as §1
# [26] = molecular target: Gal(b1-3)[Neu5Ac(a2-6)]GlcNAc(b1-4)Gal(b1-4)Glc
# Summary of the method: as §1
# [27] = molecular target: Gal(b1-3)[Neu5Ac(b2-6)]GalNAc
# Summary of the method: as §1
# Gal(b1-4)Gal = molecular target: Gal(b1-4)Gal
# Summary of the method: as §1
# [28] = molecular target: Gal(b1-4)GalNAc(a1-3)[Fuc(a1-2)]Gal(b1-4)GlcNAc
# Summary of the method: as §1
# [29] = molecular target: Gal(b1-4)GalNAc(b1-3)[Fuc(a1-2)]Gal(b1-4)GlcNAc
# Summary of the method: as §1
# Gal(b1-4)Glc = molecular target: Gal(b1-4)Glc
# Summary of the method: as §1
# Gal(b1-4)Glc6S = molecular target: Gal(b1-4)Glc6S
# Summary of the method: as §1
# Gal(b1-4)GlcNAc = molecular target: Gal(b1-4)GlcNAc
# Summary of the method: as §1
# [30] = molecular target: Gal(b1-4)GlcNAc(a1-6)Gal(b1-4)GlcNAc
# Summary of the method: as §1
# Gal(b1-4)GlcNAc(b1-2)Man = molecular target: Gal(b1-4)GlcNAc(b1-2)Man
# Summary of the method: as §1
# [31] = molecular target: Gal(b1-4)GlcNAc(b1-2)Man(a1-3)Man(b1-4)GlcNAc(b1-4)GlcNAc
# Summary of the method: as §1
# [32] = molecular target: Gal(b1-4)GlcNAc(b1-2)Man(a1-3)[Gal(b1-4)GlcNAc(b1-2)Man(a1-6)]Man(b1-4)GlcNAc(b1-4)GlcNAc
# Summary of the method: as §1
# [33] = molecular target: Gal(b1-4)GlcNAc(b1-2)Man(a1-3)[Gal(b1-4)GlcNAc(b1-2)Man(a1-6)]Man(b1-4)GlcNAc(b1-4)[Fuc(a1-6)]GlcNAc
# Summary of the method: as §1
# [34] = molecular target: Gal(b1-4)GlcNAc(b1-2)Man(a1-3)[Gal(b1-4)GlcNAc(b1-2)Man(a1-6)][Gal(b1-4)GlcNAc(b1-4)]Man(b1-4)GlcNAc(b1-4)[Fuc(a1-6)]GlcNAc
# Summary of the method: as §1
# [35] = molecular target: Gal(b1-4)GlcNAc(b1-2)Man(a1-3)[Gal(b1-4)GlcNAc(b1-2)Man(a1-6)][GlcNAc(b1-4)]Man(b1-4)GlcNAc(b1-4)[Fuc(a1-6)]GlcNAc
# Summary of the method: as §1
# [36] = molecular target: Gal(b1-4)GlcNAc(b1-2)Man(a1-3)[GlcNAc(b1-2)Man(a1-6)]Man(b1-4)GlcNAc(b1-4)GlcNAc
# Summary of the method: as §1
# [37] = molecular target: Gal(b1-4)GlcNAc(b1-2)Man(a1-3)[GlcNAc(b1-4)][Gal(b1-4)GlcNAc(b1-2)Man(a1-6)]Man(b1-4)GlcNAc(b1-4)GlcNAc
# Summary of the method: as §1
# [38] = molecular target: Gal(b1-4)GlcNAc(b1-2)Man(a1-3)[Man(a1-6)]Man(b1-4)GlcNAc(b1-4)GlcNAc
# Summary of the method: as §1
# [39] = molecular target: Gal(b1-4)GlcNAc(b1-2)Man(a1-6)Man(b1-4)GlcNAc(b1-4)GlcNAc
# Summary of the method: as §1
binder,measurement,setting,value
B1,glycan array binding signal (z-score),[1],-0.023
same,glycan array binding signal (z-score),[2],-0.669
same,glycan array binding signal (z-score),[3],2.02
same,glycan array binding signal (z-score),[4],0.934
same,glycan array binding signal (z-score),[5],0.038
same,glycan array binding signal (z-score),[6],-0.054
same,glycan array binding signal (z-score),[7],-0.137
same,glycan array binding signal (z-score),[8],2.4
same,glycan array binding signal (z-score),[9],0.95
same,glycan array binding signal (z-score),[10],-0.298
same,glycan array binding signal (z-score),[11],-0.826
same,glycan array binding signal (z-score),[12],0.956
same,glycan array binding signal (z-score),[13],0.099
same,glycan array binding signal (z-score),[14],-0.581
same,glycan array binding signal (z-score),[15],-1.35
same,glycan array binding signal (z-score),[16],-0.373
same,glycan array binding signal (z-score),[17],0.367
same,glycan array binding signal (z-score),Gal(b1-3)GlcNAc6S,-0.326
same,glycan array binding signal (z-score),[18],0.288
same,glycan array binding signal (z-score),[19],0.187
same,glycan array binding signal (z-score),[20],-0.699
same,glycan array binding signal (z-score),[21],0.676
same,glycan array binding signal (z-score),[22],0.737
same,glycan array binding signal (z-score),[23],-0.229
same,glycan array binding signal (z-score),[24],-0.261
same,glycan array binding signal (z-score),[25],-1.18
same,glycan array binding signal (z-score),[26],0.73
same,glycan array binding signal (z-score),[27],0.273
same,glycan array binding signal (z-score),Gal(b1-4)Gal,-2.19
same,glycan array binding signal (z-score),[28],-0.388
same,glycan array binding signal (z-score),[29],0.638
same,glycan array binding signal (z-score),Gal(b1-4)Glc,-0.261
same,glycan array binding signal (z-score),Gal(b1-4)Glc6S,0.787
same,glycan array binding signal (z-score),Gal(b1-4)GlcNAc,-0.753
same,glycan array binding signal (z-score),[30],-0.581
same,glycan array binding signal (z-score),Gal(b1-4)GlcNAc(b1-2)Man,-0.472
same,glycan array binding signal (z-score),[31],1.15
same,glycan array binding signal (z-score),[32],-0.727
same,glycan array binding signal (z-score),[33],-0.372
same,glycan array binding signal (z-score),[34],-1.66
same,glycan array binding signal (z-score),[35],1.72
same,glycan array binding signal (z-score),[36],-0.666
same,glycan array binding signal (z-score),[37],0.555
same,glycan array binding signal (z-score),[38],0.045
same,glycan array binding signal (z-score),[39],2.22

# An excerpt taken from the entries so far, as a working copy:
binder,measurement,setting,value
B1,glycan array binding signal (z-score),[25],-1.18
same,glycan array binding signal (z-score),[26],0.73
same,glycan array binding signal (z-score),[27],0.273
same,glycan array binding signal (z-score),Gal(b1-4)Gal,-2.19
same,glycan array binding signal (z-score),[28],-0.388
same,glycan array binding signal (z-score),[29],0.638
same,glycan array binding signal (z-score),Gal(b1-4)Glc,-0.261
same,glycan array binding signal (z-score),Gal(b1-4)Glc6S,0.787
same,glycan array binding signal (z-score),Gal(b1-4)GlcNAc,-0.753
same,glycan array binding signal (z-score),[30],-0.581
same,glycan array binding signal (z-score),Gal(b1-4)GlcNAc(b1-2)Man,-0.472
same,glycan array binding signal (z-score),[31],1.15
same,glycan array binding signal (z-score),[32],-0.727
